NP40-soluble protein abundance data for 38 targets are collected here from the supplement of paper PMC6411743.

Chains of the proteins cited; added tags and fusions are not shown. Lines headed by an entry give the natural chain unless they say otherwise; changes in a name come on top.
UniProt Q9UNS2: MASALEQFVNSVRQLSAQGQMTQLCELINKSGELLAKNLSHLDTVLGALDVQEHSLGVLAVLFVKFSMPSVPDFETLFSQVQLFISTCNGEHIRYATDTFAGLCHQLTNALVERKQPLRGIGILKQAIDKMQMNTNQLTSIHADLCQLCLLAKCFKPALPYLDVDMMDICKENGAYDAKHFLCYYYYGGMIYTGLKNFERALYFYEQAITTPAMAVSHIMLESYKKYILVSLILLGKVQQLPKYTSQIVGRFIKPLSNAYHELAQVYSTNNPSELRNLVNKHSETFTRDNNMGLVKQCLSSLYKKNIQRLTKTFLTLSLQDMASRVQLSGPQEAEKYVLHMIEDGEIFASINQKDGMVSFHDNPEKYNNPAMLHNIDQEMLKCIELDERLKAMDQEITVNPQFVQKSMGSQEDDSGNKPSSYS
UniProt Q9ULJ7: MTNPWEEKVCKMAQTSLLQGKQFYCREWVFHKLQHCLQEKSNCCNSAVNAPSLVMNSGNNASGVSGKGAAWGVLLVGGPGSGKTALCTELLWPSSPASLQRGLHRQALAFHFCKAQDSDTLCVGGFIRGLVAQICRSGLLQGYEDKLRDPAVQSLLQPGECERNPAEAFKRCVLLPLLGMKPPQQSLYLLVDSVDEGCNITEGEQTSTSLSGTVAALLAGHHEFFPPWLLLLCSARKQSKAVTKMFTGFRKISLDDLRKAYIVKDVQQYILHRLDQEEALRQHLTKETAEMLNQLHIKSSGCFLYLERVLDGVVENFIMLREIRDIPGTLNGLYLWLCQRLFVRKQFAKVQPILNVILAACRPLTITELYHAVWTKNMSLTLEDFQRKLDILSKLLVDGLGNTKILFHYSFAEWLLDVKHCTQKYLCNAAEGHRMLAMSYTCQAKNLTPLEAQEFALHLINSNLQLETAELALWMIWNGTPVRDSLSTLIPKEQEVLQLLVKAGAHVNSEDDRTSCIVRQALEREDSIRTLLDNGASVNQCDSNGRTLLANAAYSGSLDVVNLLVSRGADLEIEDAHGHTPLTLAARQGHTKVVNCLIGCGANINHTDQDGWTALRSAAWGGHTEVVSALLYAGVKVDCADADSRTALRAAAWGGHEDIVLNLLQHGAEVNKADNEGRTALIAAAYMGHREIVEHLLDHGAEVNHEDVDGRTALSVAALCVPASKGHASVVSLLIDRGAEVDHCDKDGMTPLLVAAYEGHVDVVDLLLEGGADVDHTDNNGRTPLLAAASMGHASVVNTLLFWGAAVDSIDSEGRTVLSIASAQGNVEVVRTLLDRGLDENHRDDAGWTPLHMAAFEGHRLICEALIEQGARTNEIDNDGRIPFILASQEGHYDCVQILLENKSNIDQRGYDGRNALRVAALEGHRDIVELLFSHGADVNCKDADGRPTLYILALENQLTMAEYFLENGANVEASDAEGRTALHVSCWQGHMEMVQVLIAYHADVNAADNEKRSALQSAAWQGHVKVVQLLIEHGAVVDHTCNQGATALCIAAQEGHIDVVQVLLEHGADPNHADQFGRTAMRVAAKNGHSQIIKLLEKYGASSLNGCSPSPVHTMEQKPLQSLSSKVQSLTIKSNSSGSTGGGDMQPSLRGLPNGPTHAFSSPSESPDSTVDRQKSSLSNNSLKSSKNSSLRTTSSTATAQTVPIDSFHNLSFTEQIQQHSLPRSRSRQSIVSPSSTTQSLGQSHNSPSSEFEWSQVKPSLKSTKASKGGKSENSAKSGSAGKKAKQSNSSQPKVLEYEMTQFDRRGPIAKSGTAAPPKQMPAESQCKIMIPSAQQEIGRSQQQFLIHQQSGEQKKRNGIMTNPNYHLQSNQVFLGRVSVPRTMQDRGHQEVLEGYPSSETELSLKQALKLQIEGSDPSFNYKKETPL
UniProt Q9UHD1: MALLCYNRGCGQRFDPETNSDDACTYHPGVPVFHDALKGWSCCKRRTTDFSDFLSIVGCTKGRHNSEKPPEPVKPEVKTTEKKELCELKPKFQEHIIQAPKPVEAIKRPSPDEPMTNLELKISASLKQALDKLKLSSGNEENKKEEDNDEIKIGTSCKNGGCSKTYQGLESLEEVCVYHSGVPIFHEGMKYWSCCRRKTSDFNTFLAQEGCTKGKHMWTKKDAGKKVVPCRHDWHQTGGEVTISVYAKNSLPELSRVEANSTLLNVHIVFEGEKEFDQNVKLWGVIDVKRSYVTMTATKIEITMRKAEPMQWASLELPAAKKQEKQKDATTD
UniProt Q9UGQ2: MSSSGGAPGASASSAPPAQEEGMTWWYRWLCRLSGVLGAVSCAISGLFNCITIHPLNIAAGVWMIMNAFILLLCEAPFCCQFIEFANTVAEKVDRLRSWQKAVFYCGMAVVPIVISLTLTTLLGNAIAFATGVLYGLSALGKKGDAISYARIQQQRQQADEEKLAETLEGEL
UniProt Q9UKT9: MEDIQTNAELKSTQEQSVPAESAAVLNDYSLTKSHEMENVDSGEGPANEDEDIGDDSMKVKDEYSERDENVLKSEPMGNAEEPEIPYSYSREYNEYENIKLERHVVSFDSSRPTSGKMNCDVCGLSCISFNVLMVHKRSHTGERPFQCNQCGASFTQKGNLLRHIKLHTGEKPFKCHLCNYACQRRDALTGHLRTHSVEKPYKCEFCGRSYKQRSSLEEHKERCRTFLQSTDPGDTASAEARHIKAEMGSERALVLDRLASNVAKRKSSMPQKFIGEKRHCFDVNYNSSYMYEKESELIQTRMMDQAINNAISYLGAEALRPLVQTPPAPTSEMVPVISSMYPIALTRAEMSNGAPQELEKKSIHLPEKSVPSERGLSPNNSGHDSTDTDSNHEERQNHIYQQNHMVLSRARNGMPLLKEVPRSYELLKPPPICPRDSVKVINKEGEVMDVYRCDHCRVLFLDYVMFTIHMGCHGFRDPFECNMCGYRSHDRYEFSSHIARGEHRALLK
UniProt Q9UJK0: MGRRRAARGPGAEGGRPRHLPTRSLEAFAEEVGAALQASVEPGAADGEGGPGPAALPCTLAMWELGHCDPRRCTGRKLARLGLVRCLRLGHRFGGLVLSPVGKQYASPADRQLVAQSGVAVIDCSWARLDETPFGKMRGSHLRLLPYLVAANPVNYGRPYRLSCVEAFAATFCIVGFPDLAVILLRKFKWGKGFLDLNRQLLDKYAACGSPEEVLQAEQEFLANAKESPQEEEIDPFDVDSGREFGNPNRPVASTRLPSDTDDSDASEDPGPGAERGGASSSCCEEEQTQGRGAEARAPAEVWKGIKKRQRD
UniProt Q9UHL0: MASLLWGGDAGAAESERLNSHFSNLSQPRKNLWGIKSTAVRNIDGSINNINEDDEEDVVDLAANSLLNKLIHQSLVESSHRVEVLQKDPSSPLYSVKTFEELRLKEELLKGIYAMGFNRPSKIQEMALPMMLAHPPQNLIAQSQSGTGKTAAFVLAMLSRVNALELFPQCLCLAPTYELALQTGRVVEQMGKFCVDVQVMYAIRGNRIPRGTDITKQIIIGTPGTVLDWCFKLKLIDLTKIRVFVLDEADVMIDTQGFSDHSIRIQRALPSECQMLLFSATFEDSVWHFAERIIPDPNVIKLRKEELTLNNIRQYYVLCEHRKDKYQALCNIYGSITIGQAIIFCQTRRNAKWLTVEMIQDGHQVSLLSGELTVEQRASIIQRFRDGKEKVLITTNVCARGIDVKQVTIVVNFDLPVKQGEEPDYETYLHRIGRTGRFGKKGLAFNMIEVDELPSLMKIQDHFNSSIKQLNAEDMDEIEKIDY
UniProt Q9UMS4: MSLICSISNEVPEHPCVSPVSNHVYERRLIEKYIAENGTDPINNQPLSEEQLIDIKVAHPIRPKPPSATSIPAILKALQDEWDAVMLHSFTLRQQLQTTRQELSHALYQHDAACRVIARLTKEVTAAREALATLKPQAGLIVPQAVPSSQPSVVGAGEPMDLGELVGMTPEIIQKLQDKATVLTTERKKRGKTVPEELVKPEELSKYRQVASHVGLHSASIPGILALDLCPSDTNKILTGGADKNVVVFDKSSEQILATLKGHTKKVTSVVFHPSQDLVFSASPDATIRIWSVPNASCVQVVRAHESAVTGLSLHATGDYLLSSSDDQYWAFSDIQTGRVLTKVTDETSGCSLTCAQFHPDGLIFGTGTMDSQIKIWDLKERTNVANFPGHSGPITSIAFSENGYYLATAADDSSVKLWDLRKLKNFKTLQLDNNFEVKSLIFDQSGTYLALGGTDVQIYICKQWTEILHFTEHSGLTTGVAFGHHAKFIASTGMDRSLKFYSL
UniProt Q9P260: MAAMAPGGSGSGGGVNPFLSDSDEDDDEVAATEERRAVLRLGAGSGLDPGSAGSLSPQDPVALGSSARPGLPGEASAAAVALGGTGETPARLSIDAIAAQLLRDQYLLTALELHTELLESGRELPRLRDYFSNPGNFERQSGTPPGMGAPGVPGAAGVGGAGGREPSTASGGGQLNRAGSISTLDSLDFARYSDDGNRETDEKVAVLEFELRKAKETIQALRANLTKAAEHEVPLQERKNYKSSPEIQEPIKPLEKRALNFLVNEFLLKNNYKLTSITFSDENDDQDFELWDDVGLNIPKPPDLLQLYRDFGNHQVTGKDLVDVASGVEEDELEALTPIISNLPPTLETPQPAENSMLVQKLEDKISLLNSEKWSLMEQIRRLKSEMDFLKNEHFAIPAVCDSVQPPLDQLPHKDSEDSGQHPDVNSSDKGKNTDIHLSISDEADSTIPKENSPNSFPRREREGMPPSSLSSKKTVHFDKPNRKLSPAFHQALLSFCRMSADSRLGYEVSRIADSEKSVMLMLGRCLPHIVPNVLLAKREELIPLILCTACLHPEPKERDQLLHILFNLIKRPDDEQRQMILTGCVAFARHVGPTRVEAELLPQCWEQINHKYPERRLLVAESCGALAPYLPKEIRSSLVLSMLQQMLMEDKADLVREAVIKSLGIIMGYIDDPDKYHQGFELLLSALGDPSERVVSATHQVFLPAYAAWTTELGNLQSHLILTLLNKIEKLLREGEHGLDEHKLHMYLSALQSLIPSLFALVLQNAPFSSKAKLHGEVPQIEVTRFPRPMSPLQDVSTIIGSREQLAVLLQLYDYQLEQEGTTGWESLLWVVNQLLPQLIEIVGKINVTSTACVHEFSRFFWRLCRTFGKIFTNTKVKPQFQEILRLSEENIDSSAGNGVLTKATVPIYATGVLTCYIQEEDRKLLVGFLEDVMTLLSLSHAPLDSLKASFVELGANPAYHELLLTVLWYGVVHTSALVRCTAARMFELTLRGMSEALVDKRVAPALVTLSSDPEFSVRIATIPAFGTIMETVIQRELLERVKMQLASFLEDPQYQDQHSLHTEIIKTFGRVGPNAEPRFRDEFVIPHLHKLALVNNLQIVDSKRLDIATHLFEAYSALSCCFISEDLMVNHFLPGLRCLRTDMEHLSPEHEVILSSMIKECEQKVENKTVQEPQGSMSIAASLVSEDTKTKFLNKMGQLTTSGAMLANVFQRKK
UniProt Q9UJW0, whole entry: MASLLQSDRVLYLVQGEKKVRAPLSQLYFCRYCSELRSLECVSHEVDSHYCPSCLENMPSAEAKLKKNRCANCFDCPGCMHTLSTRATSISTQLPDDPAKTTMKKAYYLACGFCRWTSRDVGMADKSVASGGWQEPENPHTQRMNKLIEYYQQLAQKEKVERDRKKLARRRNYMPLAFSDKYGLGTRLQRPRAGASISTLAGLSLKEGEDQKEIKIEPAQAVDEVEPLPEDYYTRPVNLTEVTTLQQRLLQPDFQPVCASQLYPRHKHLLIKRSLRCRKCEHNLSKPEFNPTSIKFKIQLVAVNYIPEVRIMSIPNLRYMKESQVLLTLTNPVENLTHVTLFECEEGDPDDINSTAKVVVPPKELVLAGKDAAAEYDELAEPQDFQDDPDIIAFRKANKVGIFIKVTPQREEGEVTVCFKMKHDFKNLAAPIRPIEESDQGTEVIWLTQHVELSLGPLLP
UniProt Q9UII2: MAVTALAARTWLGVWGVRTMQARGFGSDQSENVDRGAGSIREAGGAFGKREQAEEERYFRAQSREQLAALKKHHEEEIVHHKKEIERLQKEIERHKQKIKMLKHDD
UniProt Q9UJY5: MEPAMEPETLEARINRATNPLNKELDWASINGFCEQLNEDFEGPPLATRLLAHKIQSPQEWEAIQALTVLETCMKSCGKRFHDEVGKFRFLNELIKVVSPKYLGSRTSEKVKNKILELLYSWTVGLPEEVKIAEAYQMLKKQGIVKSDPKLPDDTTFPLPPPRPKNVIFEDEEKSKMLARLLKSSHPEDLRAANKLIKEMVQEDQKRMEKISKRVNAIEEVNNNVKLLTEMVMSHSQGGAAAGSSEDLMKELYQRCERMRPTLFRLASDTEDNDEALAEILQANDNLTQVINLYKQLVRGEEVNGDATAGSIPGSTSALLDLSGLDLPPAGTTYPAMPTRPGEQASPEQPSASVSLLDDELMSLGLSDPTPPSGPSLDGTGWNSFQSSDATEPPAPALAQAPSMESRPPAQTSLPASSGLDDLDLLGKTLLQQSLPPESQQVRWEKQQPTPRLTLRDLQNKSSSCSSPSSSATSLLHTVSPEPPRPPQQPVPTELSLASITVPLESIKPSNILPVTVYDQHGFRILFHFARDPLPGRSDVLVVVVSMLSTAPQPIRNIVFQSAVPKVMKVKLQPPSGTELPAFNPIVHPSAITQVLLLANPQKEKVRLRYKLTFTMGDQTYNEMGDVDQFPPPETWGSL

± gives the standard deviation of the averaged measurements. The entries are a selection whose mix differs from that of the whole data set.

Compound in this assay: Nc1ncnc2c1ncn2[C@@H]1O[C@H](COP(=O)(O)OP(=O)(O)OP(=O)(O)O)[C@@H](O)[C@H]1O [adenosine triphosphate]
Briefly: NP40-soluble protein abundance relative to vehicle (solubility fold change) (ratio); higher = more soluble protein in presence of ATP. The conditions noted are these: concentration: 2mM. The method, boiled down: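 Jurkat crude lysate (Dounce-homogenised) was treated with eight concentrations from 0.1 to 10 mM for 10 min at room temperature, then 3 min at 37 °C. It was solubilised with 0.8% NP40 and benzonase (60 min, 4 °C) and ultracentrifuged, and the supernatant was TMT-labelled for LC-MS/MS. Intensities were vsn-normalised, and the value is the fold change against the NP40-processed vehicle per replicate, from three independent experiments.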
“UniProt Q9UMZ2-3|Q9UMZ2-4|Q9UMZ2-5|Q9UMZ2-6|Q9UMZ2-7|Q9UMZ2-8|Q9UMZ2-9|Q9UMZ2”: the NP40-soluble protein abundance was 0.938 ± 0.031.

For the target COPS3 (UniProt Q9UNS2), the NP40-soluble protein abundance was found to be 0.929 ± 0.023.

Regarding AP4E1 (UniProt Q9UPM8), the NP40-soluble protein abundance was 1.07 ± 0.031.

For ANKRD50 (UniProt Q9ULJ7), the NP40-soluble protein abundance amounted to 1.02 ± 0.028.

Consider CHORDC1 (UniProt Q9UHD1), for which the NP40-soluble protein abundance amounted to 0.973 ± 0.037.

Regarding SLC39A10 (UniProt Q9ULF5), the NP40-soluble protein abundance came to 0.969 ± 0.023.

Regarding CROT (UniProt Q9UKG9), the NP40-soluble protein abundance was found to be 1.02 ± 0.047.

Consider UniProt Q9UGQ2 and related entries, for which the NP40-soluble protein abundance worked out at 1.08 ± 0.05.

UniProt Q9UM21: the NP40-soluble protein abundance worked out at 1.03 ± 0.054.

For the target UniProt Q9UHA4, the NP40-soluble protein abundance came to 0.985 ± 0.097.

Regarding UniProt Q9UKT9 and related entries, the NP40-soluble protein abundance is 1.05 ± 0.032.

With NENF (UniProt Q9UMX5), the NP40-soluble protein abundance was determined as 0.961 ± 0.064.

Consider UniProt Q9UJK0, for which the NP40-soluble protein abundance is 0.9064 ± 0.0012.

For the target GPATCH8 (UniProt Q9UKJ3), the NP40-soluble protein abundance stood at 1.4 ± 0.055.

For UniProt Q9UKZ1, the NP40-soluble protein abundance is 1.11 ± 0.016.

On to UniProt Q9UHL0 and related entries, for which the NP40-soluble protein abundance was determined as 0.935 ± 0.12.

For the target UniProt Q9UH92 and related entries, the NP40-soluble protein abundance was 1.09 ± 0.13.

As to UniProt Q9UHP3 and related entries, the NP40-soluble protein abundance was 0.925 ± 0.064.

Take UniProt Q9UK61 and related entries: the NP40-soluble protein abundance amounted to 1.13 ± 0.027.

Consider MED13 (UniProt Q9UHV7), for which the NP40-soluble protein abundance was found to be 1.31 ± 0.027.

As to APPL1 (UniProt Q9UKG1), the NP40-soluble protein abundance came to 1.03 ± 0.055.

For the target VPS51 (UniProt Q9UID3), the NP40-soluble protein abundance came out at 0.948 ± 0.075.

Take UniProt Q9UJX5 and related entries: the NP40-soluble protein abundance was determined as 1 ± 0.04.

Consider PRPF19 (UniProt Q9UMS4), for which the NP40-soluble protein abundance worked out at 0.999 ± 0.016.

Regarding UniProt Q9P260 and related entries, the NP40-soluble protein abundance was 1.01 ± 0.026.

As for DCTN4 (UniProt Q9UJW0), the NP40-soluble protein abundance came out at 0.984 ± 0.017.

On to UniProt Q9ULP9 and related entries, for which the NP40-soluble protein abundance worked out at 1.03 ± 0.054.

Regarding UniProt Q9UII2, the NP40-soluble protein abundance was 0.993 ± 0.21.

Turning to UniProt Q9UPY8 and related entries, the NP40-soluble protein abundance was 0.956 ± 0.031.

Turning to UniProt Q9ULL5-3, the NP40-soluble protein abundance came out at 0.987 ± 0.1.

With UniProt Q9UDT6-2, the NP40-soluble protein abundance amounted to 1.12 ± 0.13.

Consider UniProt Q9UJY5 and related entries, for which the NP40-soluble protein abundance is 0.941 ± 0.0063.

On to UniProt Q9UBS8 and related entries, for which the NP40-soluble protein abundance stood at 0.982 ± 0.059.

Consider CGN (UniProt Q9P2M7), for which the NP40-soluble protein abundance stood at 1.09 ± 0.032.

Consider HECA (UniProt Q9UBI9), for which the NP40-soluble protein abundance was found to be 1.02 ± 0.38.

For HECTD1 (UniProt Q9ULT8), the NP40-soluble protein abundance came out at 0.986 ± 0.014.

For the target ANAPC7 (UniProt Q9UJX3), the NP40-soluble protein abundance stood at 1 ± 0.014.

On to MRPS33 (UniProt Q9Y291), for which the NP40-soluble protein abundance amounted to 0.981 ± 0.18.
